Data on 1 substance can be found in article PMC3365051, “Sequence-Specific Binding of Recombinant Zbed4 to DNA: Insights into Zbed4 Participation in Gene Transcription and Its Association with Other Proteins”.

Chains of the proteins cited; added tags and fusions are not shown.
UniProt P35579: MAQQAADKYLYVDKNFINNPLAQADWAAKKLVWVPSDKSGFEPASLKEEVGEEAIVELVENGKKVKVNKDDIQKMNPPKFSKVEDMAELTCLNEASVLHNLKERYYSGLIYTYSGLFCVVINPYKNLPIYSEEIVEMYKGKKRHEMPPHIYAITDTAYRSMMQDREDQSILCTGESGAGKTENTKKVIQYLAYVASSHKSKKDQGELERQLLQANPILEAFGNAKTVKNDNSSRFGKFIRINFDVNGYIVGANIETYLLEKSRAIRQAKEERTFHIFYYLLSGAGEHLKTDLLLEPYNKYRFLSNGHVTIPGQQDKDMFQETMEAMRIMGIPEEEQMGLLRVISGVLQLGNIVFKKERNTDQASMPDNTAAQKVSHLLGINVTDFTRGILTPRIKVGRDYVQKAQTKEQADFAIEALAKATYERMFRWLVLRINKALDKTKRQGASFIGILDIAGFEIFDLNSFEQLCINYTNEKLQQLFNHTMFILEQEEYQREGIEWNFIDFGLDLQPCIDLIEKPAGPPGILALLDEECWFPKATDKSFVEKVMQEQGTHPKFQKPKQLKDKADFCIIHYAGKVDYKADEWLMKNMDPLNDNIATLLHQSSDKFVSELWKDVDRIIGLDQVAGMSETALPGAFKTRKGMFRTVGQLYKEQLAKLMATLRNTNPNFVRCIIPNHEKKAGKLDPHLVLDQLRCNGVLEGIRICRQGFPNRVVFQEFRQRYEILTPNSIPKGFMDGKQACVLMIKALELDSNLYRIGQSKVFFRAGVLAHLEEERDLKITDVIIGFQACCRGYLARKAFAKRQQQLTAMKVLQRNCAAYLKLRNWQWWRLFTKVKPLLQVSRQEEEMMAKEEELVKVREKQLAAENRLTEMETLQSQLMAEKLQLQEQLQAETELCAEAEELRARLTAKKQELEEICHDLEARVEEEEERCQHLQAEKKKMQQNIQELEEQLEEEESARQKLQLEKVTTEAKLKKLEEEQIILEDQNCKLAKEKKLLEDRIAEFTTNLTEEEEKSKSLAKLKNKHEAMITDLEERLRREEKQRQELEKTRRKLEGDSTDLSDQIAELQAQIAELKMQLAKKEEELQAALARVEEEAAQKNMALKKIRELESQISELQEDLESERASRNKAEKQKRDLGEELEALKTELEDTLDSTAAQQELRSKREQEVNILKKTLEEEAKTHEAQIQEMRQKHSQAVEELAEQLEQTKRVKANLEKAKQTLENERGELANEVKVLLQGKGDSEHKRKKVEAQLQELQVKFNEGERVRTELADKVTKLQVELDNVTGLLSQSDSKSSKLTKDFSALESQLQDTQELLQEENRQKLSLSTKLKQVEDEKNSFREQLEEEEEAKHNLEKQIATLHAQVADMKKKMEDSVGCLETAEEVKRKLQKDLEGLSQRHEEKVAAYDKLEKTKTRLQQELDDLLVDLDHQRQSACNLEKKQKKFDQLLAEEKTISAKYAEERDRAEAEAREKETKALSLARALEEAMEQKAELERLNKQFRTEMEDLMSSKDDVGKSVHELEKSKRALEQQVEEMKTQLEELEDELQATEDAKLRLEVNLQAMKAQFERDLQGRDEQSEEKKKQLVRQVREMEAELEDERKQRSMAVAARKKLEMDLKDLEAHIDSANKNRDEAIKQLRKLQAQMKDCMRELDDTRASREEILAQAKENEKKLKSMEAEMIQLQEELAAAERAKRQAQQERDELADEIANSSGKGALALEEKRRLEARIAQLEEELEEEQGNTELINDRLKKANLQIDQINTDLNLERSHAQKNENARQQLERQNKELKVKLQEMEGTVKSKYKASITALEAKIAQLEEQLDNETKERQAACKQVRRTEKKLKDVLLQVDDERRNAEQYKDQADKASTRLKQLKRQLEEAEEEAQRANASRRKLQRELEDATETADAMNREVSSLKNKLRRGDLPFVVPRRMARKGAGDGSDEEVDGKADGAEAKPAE

The target of this assay is T1, endogenous ZBED4 of Y79 retinoblastoma cells (human (endogenous in Y79)) (UniProt O75132).
T1 sequence: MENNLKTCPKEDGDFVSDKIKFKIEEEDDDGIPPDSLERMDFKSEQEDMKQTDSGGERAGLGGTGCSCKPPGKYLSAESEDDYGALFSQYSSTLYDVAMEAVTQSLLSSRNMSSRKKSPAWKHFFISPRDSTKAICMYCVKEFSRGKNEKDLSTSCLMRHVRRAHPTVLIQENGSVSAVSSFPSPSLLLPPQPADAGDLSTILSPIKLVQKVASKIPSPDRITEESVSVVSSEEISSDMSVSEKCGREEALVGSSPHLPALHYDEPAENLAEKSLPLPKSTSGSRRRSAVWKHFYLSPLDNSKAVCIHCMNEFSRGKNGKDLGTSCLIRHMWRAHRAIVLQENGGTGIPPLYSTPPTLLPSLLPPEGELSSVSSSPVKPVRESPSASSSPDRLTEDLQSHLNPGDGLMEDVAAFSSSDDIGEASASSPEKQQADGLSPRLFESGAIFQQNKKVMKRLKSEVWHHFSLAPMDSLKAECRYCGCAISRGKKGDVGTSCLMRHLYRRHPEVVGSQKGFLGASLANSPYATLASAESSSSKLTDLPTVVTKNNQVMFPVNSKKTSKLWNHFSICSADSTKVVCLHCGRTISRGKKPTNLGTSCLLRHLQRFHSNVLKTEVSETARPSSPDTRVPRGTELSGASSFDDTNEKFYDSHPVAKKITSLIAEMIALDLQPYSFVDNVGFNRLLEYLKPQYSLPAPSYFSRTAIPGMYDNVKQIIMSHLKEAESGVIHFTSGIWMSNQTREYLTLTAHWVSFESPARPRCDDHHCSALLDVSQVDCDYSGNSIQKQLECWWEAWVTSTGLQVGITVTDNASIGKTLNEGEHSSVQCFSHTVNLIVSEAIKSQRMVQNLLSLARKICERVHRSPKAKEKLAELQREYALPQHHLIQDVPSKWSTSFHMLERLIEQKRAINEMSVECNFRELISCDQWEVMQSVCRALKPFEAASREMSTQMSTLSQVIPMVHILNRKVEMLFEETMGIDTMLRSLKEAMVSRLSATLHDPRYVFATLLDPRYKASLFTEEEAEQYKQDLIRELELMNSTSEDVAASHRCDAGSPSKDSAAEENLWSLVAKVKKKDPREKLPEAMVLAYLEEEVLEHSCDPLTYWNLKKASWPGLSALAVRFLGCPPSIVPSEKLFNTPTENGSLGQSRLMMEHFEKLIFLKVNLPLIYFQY
Nature of the assay: affinity purification with mass spectrometry; Y79 cells lysed in RIPA buffer; immunoprecipitation with Zbed4 antibody (Immobilized Protein G kit), pre-immune serum as control; bands excised from SDS-PAGE (SYPRO Ruby), trypsin digestion, nLC-MS/MS.

Results are given in words; binding and its absence hold for the method and conditions named. In cells and extracts the contact can be indirect. These calls come from enrichment with a bait or labelling near it, and not all partners need be listed.

For “cellular myosin 9 (from UniProt P35579 1-1960)”, the binding entry was “binds”.
